Substitutions are numbered along the chain they refer to. No constants are given. Whether binding was seen depends on the method and setting. Binding seen in cells or lysates may run through a third protein. A yes stands for co-enrichment or nearness to the bait. Other partners may have been found. Tags and fused reporters may be left off the sequences shown. One block for each binder: values may come before it.
Target: T1, PAG1-FLAG (PAG1, subunit in the α-ring of the 20S core particle, with a C-terminal FLAG tag) (Arabidopsis thaliana) (UniProt O23715)
T1 sequence (chain, N-acetyl-L-serine (1)): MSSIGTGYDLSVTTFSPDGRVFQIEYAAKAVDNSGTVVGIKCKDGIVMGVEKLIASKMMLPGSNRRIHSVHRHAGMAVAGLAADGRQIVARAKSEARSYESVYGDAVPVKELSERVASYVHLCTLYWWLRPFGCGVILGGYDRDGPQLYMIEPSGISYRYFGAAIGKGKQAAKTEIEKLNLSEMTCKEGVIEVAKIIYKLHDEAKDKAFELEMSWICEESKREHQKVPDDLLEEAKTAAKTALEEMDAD
Assay: affinity purification with mass spectrometry; soluble extract of PAG1-FLAG Arabidopsis seedlings passed over anti-FLAG beads, washed with 800 mM NaCl, eluted with excess FLAG peptide; intact proteins identified by nanoLC UV-IF and top-down ETD/HCD MS/MS

binding: binds
B1: PBB1, N-terminally processed (protein, UniProt O23710 40-273)
chain: TTIVGLIFKDGVILGADTRATEGPIVADKNCEKIHYMAPNIYCCGAGTAADTEAVTDMVSSQLRLHRYQTGRDSRVITALTLLKKHLFSYQGHVSAALVLGGVDITGPHLHTIYPHGSTDTLPFATMGSGSLAAMSVFEAKYKEGLTRDEGIKLVAESICSGIFNDLGSGSNVDICVITKGNKEYLRNYMEPNPRTYVSSKGYSFTKKTEVLLTKITPLLERVEITEVGEAMEE

binding: binds
B2: PBD2 (protein, UniProt O24633 1-199)
chain: MECVFGLVGNGFAIVAADTSAVHSILLHKNKEDKIMTLDSHKLVAASGEPGDRVQFTEYVQKNVSLYQFRNGIPLSTAAAANFTRGELATALRKNPYSVNILMAGYDKEAGASLYYIDYIATLHKVDKGAFGYGSYFSLSTMDRHYRSDMSVEEAIELVDKCILEIRSRLVIAPPNFVIKIVDKDGAREYGWRISTADA
modifications: N-acetyl-L-methionine (1)

binding: binds
B3: PBE2 (β5 subunit isoform), N-terminally processed (protein, UniProt Q9LIP2 58-273)
chain: TTTLAFIFKEGVMVAADSRASMGGYISSQSVKKIIEINPYMLGTMAGGAADCQFWHRNLGIKCRLHELANKRRISVSGASKLLANMLYSYRGMGLSVGTMIAGWDETGPGLYYVDNEGGRLKGDRFSVGSGSPYAYGVLDSGYKFDMSVEEASELARRSIYHATFRDGASGGVASVYHVGPQGWTKLSGDDVGELHYHYYPVAPITAEHVMEEAAE

binding: binds
B4: PBE1 (β5 subunit isoform), N-terminally processed (protein, UniProt O23717 58-274)
chain: TTTLAFIFKGGVMVAADSRASMGGYISSQSVKKIIEINPYMLGTMAGGAADCQFWHRNLGIKCRLHELANKRRISVSGASKLLANMLYSYRGMGLSVGTMIAGWDETGPGLYYVDNEGGRLKGDRFSVGSGSPYAYGVLDSGYKYDMSVEEASELARRSIYHATFRDGASGGVASVYHVGPEGWTKLSGDDVGELHYHYYPVAPATAEQVMEEATAE

binding: binds
B5: PBC1 (protein, UniProt Q9XI05 1-204)
chain: MSIFEYNGSAVVAMVGKNCFAIASDRRLGVQLQTIATDFQRISKIHDRVFIGLSGLATDVQTLYQRLVFRHKLYQLREERDMKPETFASLVSAILYEKRFGPYLCQPVIAGLGDDDKPFICTMDSIGAKELAKDFVVSGTASESLYGACEAMYKPDMEAEELFETISQALLSSVDRDCLSGWGGHVYIVTPTEIKERILKGRMD
modifications: N-acetyl-L-serine (1)

binding: binds
B6: PBC2 (protein, UniProt O81153 1-204)
chain: B5 chain with R48H, V49L, Y103F, D116N, Y153F, I188V, T192K, I194V
modifications: N-acetyl-L-serine (1)

binding: binds
B7: DSS1(V) (protein, UniProt Q9FL96 1-73)
chain: MAAEPKAAVEVVKVDLFEDDDEFEEFEINEDWLEKEEVKEVSLQWEDDWDDDDVSDDFSRQLKKELENASEKK
modifications: N-acetyl-L-alanine (1)

binding: binds
B8: DSS1(I) (protein, UniProt Q9XIR8 1-74)
chain: MAAEPKAATAEVVKMDLFEDDDEFEEFEINEDWLEKEEVKEVSQQWEDDWDDDDVNDDFSRQLRKELENGTDKK
modifications: N-acetyl-L-alanine (1)

binding: binds
B9: PAC1 (protein, UniProt O81148 1-250)
chain: MSRRYDSRTTIFSPEGRLYQVEYAMEAIGNAGSAIGILSKDGVVLIGEKKVTSKLLQTSTSAEKMYKIDDHVACAVAGIMSDANILINTARVQAQRYTFMYQEPMPVEQLVQSLCDTKQGYTQFGGLRPFGVSFLFAGWDKHHGFQLYMSDPSGNYGGWKAAAVGANNQAAQSILKQDYKDDATREEAVELALKVLTKTMDSTSLTSEKLELAEVYLTPSKTVKYHVHSPESLTKLLVKHGVTQPAAETS
modifications: N-acetyl-L-serine (1)

binding: binds
B10: DRT112, N-terminally processed (protein, UniProt P42699 69-167)
chain: IEVLLGGGDGSLAFIPNDFSIAKGEKIVFKNNAGYPHNVVFDEDEIPSGVDVAKISMDEQDLLNGAGETYEVALTEPGTYSFYCAPHQGAGMVGKVTVN

binding: binds
B11: PBB2, N-terminally processed (protein, UniProt Q7DLS1 40-274)
chain: TTIVGLIFKDGVILGADTRATEGPIVADKNCEKIHYMAPNIYCCGAGTAADTEAVTDMVSSQLRLHRYQTGRDSRVVTALTLLKKHLFSYQGHVSAALVLGGVDITGPHLHTIYPHGSTDTLPFATMGSGSLAAMSVFEAKYKEGLTRDEGIKLVAEAICSGIFNDLGSGSNVDICVITKGHKEYLRNYMEPNPRTYVSSKGYSFTKKTEVLLTKITPLLERVEIVEVAGEAMEE

binding: binds
B12: PBF1 (β6 subunit), N-terminally processed (protein, UniProt P42742 6-223)
chain: ANWSPYDNNGGTCVAIAGSDYCVIAADTRMSTGYSILSRDYSKIHKLADRAVLSSSGFQADVKALQKVLKSRHLIYQHQHNKQMSCPAMAQLLSNTLYFKRFFPYYAFNVLGGLDEEGKGCVFTYDAVGSYERVGYGAQGSGSTLIMPFLDNQLKSPSPLLLPKQDSNTPLSEAEAVDLVKTVFASATERDIYTGDKLEIMILKADGIKTELMDLRKD

binding: binds
B13: PAB1 (protein, UniProt O23708 1-235)
chain: MGDSQYSFSLTTFSPSGKLVQIEHALTAVGSGQTSLGIKASNGVVIATEKKLPSILVDEASVQKIQHLTPNIGVVYSGMGPDFRVLVRKSRKQAEQYLRLYKEPIPVTQLVRETATVMQEFTQSGGVRPFGVSLLVAGYDDKGPQLYQVDPSGSYFSWKASAMGKNVSNAKTFLEKRYTEDMELDDAIHTAILTLKEGFEGEISSKNIEIGKIGADKVFRVLTPAEIDDYLAEVE
modifications: N-acetylglycine (1)

binding: binds
B14: PAB2 (protein, UniProt Q8L4A7 1-235)
chain: B13 chain with V74T, A215T
modifications: N-acetylglycine (1)

binding: binds
B15: RPP2B (protein, UniProt Q9SLF7 1-115)
chain: MKVVAAYLLAVLSGKASPTSADIKTILGSVGAETEDSQIELLLKEVKGKDLAELIAAGREKLASVPSGGGGGVAVASATSGGGGGGGASAAESKKEEKKEEKEESDDDMGFSLFE
modifications: O-phospho-L-serine (105)

binding: binds
B16: PAA2 (protein, UniProt O81147 1-246)
chain: MSRGSGAGYDRHITIFSPEGRLFQVEYAFKAVKAAGITSIGVRGKDSVCVVTQKKVPDKLLDQSSVSHLFPVTKYLGLLATGMTADSRSLVQQARNEAAEFRFQYGYEMPADILAKWIADKSQVYTQHAYMRPLGVVAMVLGIDEERGPLLYKCDPAGHFYGHKATSAGMKEQEAVNFLEKKMKENPAFTYDETVQTAISALQSVLQEDFKATEIEVGVVRADDPLFRSLRTEEIDEHLTAISERD
modifications: N-acetyl-L-serine (1)

binding: binds
B17: PAA1 (protein, UniProt O81146 1-246)
chain: MSRGSGAGYDRHITIFSPEGRLFQVEYAFKAVKTAGITSIGVRGKDSVCVVTQKKVPDKLLDQSSVTHLFPITKYIGLVATGITADARSLVQQARNQAAEFRFTYGYEMPVDILAKWIADKSQVYTQHAYMRPLGVVAMVMGVDEENGPLLYKCDPAGHFYGHKATSAGMKEQEAVNFLEKKMKENPSFTFDETVQTAISALQSVLQEDFKATEIEVGVVRAENPEFRALTTEEIEEHLTAISERD
modifications: N-acetyl-L-serine (1)

binding: binds
B18: CYS1 (protein, UniProt Q945Q1 1-101)
chain: MADQQAGTIVGGVRDIDANANDLQVESLARFAVDEHNKNENLTLEYKRLLGAKTQVVAGTMHHLTVEVADGETNKVYEAKVLEKAWENLKQLESFNHLHDV
modifications: N-acetyl-L-alanine (1)

binding: binds
B19: PBD1 (protein, UniProt O23714 1-204)
chain: MECVFGLVGNGFAIVAADTSAVHSILLHKNNEDKIMVLDSHKLVAASGEPGDRVQFTEYVQKNVSLYKFRNGIPLTTAAAANFTRGELATALRKNPYSVNILMAGYDDESGASLYYIDYIATLHKVDKGAFGYGSYFSLSTMDRHYRSDMSVEEAIELVDKCILEIRSRLVVAPPNFVIKIVDKDGARDYAWRQSVKDVTTAVV
modifications: N-acetyl-L-methionine (1)

binding: binds
B20: PAE2 (protein, UniProt Q42134 1-237)
chain: MFLTRTEYDRGVNTFSPEGRLFQVEYAIEAIKLGSTAIGVKTKEGVVLAVEKRITSPLLEPSSVEKIMEIDDHIGCAMSGLIADARTLVEHARVETQNHRFSYGEPMTVESTTQALCDLALRFGEGEEESMSRPFGVSLLIAGHDENGPSLYYTDPSGTFWQCNAKAIGSGSEGADSSLQEQFNKDITLQEAETIAVSILKQVMEEKVTPNNVDIAKVAPAYHLYTPQEVEAVISRL
modifications: N-acetyl-L-methionine (1)

binding: binds
B21: PAE1 (protein, UniProt O81149 1-237)
chain: B20 chain with I187L, T188S, S235A
modifications: N-acetyl-L-methionine (1)

binding: binds
B22: PBA1, N-terminally processed (protein, UniProt Q8LD27 13-233)
chain: TTIIGVTYNGGVVLGADSRTSTGMYVANRASDKITQLTDNVYVCRSGSAADSQVVSDYVRYFLHQHTIQHGQPATVKVSANLIRMLAYNNKNMLQTGLIVGGWDKYEGGKIYGIPLGGTVVEQPFAIGGSGSSYLYGFFDQAWKDNMTKEEAEQLVVKAVSLAIARDGASGGVVRTVIINSEGVTRNFYPGDKLQLWHEELEPQNSLLDILNAAGPEPMAM

binding: binds
B23: PBG1 (β7 subunit), N-terminally processed (protein, UniProt Q7DLR9 24-246)
chain: TLYPYVTGTSIVAIKYKDGVLMASDMGGSYGSTLRYKNIERVKAIGKHSLLGASGEISDFQEILRYLDELTLNDNMWDDGNSLGPKEIHNYLTRVMYNRRNKFNPLWNTLVLGGVKNGKSYLGMVSMIGVSFEDDHVATGFGNHLARPILRDEWHADLSFEDGVKLLEKCMRVLLYRDRSAINKLQIAKITEEGVTVSQPYSLKTYWEFSSFHNPTAGAAGSW

Source: publication PMC3594244
